Experimental data as given in paper PMC10290137, “Systems-level analyses of protein-protein interaction network dysfunctions via epichaperomics identify cancer-specific mechanisms of stress adaptation” (Nature Communications, 2023).

By UniProt entry, the sequences of proteins in these tests, tags left out.
UniProt P11142: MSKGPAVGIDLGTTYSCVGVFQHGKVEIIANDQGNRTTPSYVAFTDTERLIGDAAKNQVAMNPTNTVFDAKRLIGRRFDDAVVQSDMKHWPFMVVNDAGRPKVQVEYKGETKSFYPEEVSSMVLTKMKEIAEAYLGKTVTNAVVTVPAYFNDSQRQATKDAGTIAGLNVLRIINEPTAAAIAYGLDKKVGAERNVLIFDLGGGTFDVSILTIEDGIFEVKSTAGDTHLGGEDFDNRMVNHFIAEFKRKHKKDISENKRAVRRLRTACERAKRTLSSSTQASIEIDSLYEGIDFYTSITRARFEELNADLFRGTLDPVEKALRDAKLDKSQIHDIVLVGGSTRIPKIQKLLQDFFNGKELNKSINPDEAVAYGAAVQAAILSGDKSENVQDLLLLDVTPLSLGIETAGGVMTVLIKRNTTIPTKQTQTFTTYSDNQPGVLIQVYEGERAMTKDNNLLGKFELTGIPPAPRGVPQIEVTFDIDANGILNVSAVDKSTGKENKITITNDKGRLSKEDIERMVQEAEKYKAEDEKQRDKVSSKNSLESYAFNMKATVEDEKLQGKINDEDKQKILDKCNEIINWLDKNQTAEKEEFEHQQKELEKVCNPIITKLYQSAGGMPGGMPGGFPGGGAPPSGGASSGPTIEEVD
UniProt O14965: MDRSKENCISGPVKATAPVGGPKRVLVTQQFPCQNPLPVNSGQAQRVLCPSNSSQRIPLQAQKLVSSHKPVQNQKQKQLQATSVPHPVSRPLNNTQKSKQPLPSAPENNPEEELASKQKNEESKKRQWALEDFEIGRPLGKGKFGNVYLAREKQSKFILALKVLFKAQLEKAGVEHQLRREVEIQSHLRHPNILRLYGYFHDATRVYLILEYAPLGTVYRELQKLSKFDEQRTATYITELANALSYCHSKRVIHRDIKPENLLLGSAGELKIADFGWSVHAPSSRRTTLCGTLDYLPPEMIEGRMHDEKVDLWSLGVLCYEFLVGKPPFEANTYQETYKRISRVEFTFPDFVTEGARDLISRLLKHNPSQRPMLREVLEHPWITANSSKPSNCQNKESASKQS
UniProt O43684: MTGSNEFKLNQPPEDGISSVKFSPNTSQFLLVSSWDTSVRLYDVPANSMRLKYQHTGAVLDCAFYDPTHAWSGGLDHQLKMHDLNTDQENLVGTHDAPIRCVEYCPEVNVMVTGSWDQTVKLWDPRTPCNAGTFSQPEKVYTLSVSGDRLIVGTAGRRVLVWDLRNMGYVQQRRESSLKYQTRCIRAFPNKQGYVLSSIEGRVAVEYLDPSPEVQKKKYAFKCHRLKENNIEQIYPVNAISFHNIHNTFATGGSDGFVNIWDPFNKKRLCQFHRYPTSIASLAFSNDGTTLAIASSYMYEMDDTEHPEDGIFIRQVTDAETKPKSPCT
UniProt P52732: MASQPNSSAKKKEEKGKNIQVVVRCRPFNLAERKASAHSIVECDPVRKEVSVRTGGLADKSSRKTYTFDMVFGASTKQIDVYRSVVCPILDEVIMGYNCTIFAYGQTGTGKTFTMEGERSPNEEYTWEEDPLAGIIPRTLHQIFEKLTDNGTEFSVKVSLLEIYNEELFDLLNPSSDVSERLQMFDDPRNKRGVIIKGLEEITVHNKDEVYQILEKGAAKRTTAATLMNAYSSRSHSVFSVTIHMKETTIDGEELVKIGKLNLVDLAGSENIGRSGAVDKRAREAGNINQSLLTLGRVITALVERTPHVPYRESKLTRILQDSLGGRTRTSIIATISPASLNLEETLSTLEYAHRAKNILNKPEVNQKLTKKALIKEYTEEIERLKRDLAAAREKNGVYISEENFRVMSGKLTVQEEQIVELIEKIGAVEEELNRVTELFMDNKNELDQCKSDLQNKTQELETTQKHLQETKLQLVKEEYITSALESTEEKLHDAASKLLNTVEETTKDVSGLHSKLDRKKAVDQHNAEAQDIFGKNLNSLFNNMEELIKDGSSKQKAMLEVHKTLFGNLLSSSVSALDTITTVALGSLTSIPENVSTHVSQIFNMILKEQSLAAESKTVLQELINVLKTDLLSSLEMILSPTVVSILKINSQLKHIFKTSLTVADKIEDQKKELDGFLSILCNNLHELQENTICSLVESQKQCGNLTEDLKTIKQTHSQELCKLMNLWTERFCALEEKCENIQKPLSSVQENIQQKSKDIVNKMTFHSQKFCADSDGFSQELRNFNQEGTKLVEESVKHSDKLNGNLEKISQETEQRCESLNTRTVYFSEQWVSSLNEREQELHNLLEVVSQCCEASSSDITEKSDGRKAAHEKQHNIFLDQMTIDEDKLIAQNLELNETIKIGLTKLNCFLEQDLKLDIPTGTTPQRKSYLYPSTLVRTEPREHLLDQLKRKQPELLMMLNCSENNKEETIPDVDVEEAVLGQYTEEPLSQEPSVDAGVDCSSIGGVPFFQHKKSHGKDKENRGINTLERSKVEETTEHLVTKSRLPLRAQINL
UniProt Q14980: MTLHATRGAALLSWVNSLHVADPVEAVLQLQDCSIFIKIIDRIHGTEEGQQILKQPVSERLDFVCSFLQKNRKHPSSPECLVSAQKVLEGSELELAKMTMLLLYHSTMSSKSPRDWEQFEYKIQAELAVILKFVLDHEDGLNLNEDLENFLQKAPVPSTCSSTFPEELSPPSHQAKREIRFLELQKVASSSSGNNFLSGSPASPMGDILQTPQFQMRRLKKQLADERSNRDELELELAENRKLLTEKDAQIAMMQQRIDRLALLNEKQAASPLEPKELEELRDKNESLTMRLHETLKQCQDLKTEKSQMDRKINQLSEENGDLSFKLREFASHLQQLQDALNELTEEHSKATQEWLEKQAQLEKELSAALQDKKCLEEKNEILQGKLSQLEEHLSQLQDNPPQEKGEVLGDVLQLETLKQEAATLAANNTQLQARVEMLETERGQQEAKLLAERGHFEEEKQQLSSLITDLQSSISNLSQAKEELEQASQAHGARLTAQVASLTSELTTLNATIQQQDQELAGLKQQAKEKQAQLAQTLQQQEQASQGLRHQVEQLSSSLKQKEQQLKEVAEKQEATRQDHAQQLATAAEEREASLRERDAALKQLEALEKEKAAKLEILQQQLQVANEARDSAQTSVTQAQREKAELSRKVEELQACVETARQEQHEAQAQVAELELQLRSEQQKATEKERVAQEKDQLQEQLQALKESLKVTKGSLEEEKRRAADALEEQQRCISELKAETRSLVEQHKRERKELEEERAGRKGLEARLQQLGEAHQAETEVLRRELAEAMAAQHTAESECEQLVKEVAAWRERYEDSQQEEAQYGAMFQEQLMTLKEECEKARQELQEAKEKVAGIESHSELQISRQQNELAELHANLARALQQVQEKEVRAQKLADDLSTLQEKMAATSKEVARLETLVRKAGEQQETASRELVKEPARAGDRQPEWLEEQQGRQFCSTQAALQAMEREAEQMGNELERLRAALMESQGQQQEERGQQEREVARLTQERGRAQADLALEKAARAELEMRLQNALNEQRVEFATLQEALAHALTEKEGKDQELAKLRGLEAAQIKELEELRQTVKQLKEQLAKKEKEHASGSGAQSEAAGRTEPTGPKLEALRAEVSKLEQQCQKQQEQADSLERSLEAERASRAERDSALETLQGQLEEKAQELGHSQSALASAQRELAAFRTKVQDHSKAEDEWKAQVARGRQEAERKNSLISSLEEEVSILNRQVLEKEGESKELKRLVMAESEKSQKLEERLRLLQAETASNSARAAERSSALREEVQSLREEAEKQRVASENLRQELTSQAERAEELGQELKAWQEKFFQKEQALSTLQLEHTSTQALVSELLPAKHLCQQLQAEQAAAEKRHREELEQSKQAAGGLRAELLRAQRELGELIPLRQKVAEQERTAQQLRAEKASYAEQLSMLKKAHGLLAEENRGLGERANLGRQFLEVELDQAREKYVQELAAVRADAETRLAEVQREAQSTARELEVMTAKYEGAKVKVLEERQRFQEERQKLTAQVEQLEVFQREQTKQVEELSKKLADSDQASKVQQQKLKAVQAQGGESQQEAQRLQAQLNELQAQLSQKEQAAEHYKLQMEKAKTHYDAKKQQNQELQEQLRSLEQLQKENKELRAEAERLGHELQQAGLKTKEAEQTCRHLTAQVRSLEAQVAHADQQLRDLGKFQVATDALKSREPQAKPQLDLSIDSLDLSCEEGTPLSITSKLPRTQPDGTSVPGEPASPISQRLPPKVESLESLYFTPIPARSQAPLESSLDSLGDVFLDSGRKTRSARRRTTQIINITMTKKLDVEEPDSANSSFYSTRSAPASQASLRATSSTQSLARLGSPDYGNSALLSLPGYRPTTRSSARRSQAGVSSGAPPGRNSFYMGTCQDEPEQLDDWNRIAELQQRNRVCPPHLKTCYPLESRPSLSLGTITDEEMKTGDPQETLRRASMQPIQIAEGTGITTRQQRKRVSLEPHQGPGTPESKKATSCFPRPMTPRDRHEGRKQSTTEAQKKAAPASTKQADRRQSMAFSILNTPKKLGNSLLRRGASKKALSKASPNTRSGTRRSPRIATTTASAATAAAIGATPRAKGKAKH
UniProt P53350: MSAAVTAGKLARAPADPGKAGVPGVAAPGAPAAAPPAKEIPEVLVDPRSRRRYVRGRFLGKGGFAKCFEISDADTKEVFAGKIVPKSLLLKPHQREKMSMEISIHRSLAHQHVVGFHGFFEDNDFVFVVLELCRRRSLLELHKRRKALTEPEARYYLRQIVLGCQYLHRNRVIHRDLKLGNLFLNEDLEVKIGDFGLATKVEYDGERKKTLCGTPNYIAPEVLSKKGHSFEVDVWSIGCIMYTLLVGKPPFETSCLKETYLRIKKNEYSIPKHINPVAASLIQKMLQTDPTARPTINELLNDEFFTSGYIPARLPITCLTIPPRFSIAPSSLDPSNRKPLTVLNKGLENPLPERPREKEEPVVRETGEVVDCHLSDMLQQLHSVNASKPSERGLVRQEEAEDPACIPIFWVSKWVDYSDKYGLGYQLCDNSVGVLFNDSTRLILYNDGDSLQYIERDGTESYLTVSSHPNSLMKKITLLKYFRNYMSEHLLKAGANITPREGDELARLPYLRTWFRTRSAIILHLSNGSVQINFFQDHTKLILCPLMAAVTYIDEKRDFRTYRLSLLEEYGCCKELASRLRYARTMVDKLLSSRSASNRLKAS
UniProt P40763: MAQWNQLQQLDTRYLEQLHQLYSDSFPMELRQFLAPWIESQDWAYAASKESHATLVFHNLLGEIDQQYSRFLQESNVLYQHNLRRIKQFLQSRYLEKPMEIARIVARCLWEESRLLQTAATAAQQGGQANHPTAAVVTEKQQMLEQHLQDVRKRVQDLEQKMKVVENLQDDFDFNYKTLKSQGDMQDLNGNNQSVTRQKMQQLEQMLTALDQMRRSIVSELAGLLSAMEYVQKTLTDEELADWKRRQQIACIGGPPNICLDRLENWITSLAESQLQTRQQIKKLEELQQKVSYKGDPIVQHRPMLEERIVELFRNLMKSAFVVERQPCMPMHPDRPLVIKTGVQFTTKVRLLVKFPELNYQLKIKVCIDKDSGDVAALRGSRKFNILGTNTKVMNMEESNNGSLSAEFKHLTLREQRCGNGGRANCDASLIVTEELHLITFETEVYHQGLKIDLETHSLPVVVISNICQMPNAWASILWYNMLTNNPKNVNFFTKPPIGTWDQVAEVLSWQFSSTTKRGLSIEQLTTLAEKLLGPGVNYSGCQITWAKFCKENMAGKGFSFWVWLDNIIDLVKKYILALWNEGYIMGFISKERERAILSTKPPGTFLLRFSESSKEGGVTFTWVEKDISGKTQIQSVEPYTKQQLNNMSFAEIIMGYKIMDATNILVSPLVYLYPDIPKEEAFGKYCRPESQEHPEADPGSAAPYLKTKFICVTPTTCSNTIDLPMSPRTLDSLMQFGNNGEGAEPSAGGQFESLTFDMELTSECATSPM

What follows are molecules tested against heat shock cognate 70 (HSC70) (human (endogenous in MDA-MB-468)) (UniProt P11142) (assay: affinity purification with mass spectrometry; YK5-B epichaperomics in MDA-MB-468: probe (25-75 µM, 4 h) added to live cells then streptavidin beads, or YK5-B beads added to 500 µg lysate overnight; SDS-PAGE, in-gel digestion, label-free LC-MS/MS; control bait; grades A-C by p-value).

binding	Molecule
binds	KIF2C (protein, UniProt Q99661 1-725) MAMDSSLQARLFPGLAIKIQRSNGLIHSANVRTVNLEKSCVSVEWAEGGATKGKEIDFDDVAAINPELLQLLPLHPKDNLPLQENVTIQKQKRRSVNSKIPAPKESLRSRSTRMSTVSELRITAQENDMEVELPAAANSRKQFSVPPAPTRPSCPAVAEIPLRMVSEEMEEQVHSIRGSSSANPVNSVRRKSCLVKEVEKMKNKREEKKAQNSEMRMKRAQEYDSSFPNWEFARMIKEFRATLECHPLTMTDPIEEHRICVCVRKRPLNKQELAKKEIDVISIPSKCLLLVHEPKLKVDLTKYLENQAFCFDFAFDETASNEVVYRFTARPLVQTIFEGGKATCFAYGQTGSGKTHTMGGDLSGKAQNASKGIYAMASRDVFLLKNQPCYRKLGLEVYVTFFEIYNGKLFDLLNKKAKLRVLEDGKQQVQVVGLQEHLVNSADDVIKMIDMGSACRTSGQTFANSNSSRSHACFQIILRAKGRMHGKFSLVDLAGNERGADTSSADRQTRMEGAEINKSLLALKECIRALGQNKAHTPFRESKLTQVLRDSFIGENSRTCMIATISPGISSCEYTLNTLRYADRVKELSPHSGPSGEQLIQMETEEMEACSNGALIPGNLSKEEEELSSQMSSFNEAMTQIRELEEKAMEELKEIIQQGPDWLELSEMTEQPDYDLETFVNKAESALAQQAKHFSALRDVIKALRLAMQLEEQASRQISSKKRPQ

Target: heat shock cognate 70 (HSC70) (human (endogenous in MDA-MB-468)) (UniProt P11142)
Assay: as above
Remark: another data set of the same source

binding	Molecule
binds	Aurora kinase A (AURKA) (from UniProt O14965 1-403)
binds	BUB3 (from UniProt O43684 1-328)
binds	KIF11 also called Eg5 (from UniProt P52732 1-1056)
binds	NCAPD2 (from UniProt Q15021 1-1401)
binds	Nuclear Mitotic Apparatus Protein 1 (NUMA1 or NuMA) (from UniProt Q14980 1-2115)
binds	Polo Like Kinase 1 (PLK1) (from UniProt P53350 1-603)
binds	TPX2 microtubule nucleation factor (from UniProt Q9ULW0 1-747)
binds	signal transducer and activator of transcription 3 (STAT3) (from UniProt P40763 1-770)

Results are given in words; binding and its absence hold for the method and conditions named. Binding seen in cells or lysates may run through a third protein. Here binding means that the protein was enriched with, or labelled near, the bait; the list need not be complete.
